Laboratory results from article PMC2890523.
The exact form of at least one protein or probe is not confirmed. For some assays here: A negative result means that nothing was seen under these conditions. For some assays here: Weaker means in comparison with the reference protein, sequence or condition of that experiment. For some assays here: At least one verdict rests on a figure or table, not on a statement of the authors.

How the values were obtained:
[1] = system: PaNip7 (Pyrococcus abyssi); experiment: EMSA; conditions: 1 pmol RNA in 20 ul, 20 mM Tris-HCl pH 8.0, 20 mM KCl, 2 mM MgCl2, 1 mM DTT, 100 ug/ml BSA, 0.8 U RNasin (or conditions of earlier work, ref 21), 37 C, 30 min, recombinant protein, label: 5'-32P
[2] = target: PaSBDS (Pyrococcus abyssi) (UniProt Q9V121); experiment: EMSA; conditions: 1 pmol RNA in 20 ul, 20 mM Tris-HCl pH 8.0, 20 mM KCl, 2 mM MgCl2, 1 mM DTT, 100 ug/ml BSA, 0.8 U RNasin (or conditions of earlier work, ref 21), 37 C, 30 min, recombinant protein, protein details: pET-28a vector, Ni-NTA purified (His tag), label: 5'-32P

Sequence: UUAUUAUUUAUUUAUUAUUUA [poly-rAU 21-mer]
- binding result ([1]; 10-100 pmol, efficient): binds

Sequence: AAAAAAAAAAAAAA [poly-rA 14-mer]
- binding result ([1]; 100 pmol, no band shift (text also: not with high affinity)): no binding

Sequence: AAAAAAAAAAAA [poly-rA 12-mer]
- binding result ([2]; 50-400 pmol): binds

Sequence: UUUUUUUUUUUUUU [poly-rU 14-mer]
- binding result ([2]; low affinity): binds more weakly

Sequence: AAAAAAAAAA [poly-rA 10-mer]
- binding result ([2]; binds, but longer poly-rA more efficiently): binds more weakly
